Assay results: patent US4973603A, “Platelet activating factor antagonist and methods of use therefor” (priority 1989, dated 1990)

Test system: arachidonic acid
Assay: The Mouse Ear Edema Test (arachidonic acid-induced skin edema)
Format: in vivo, mouse (Charles River CD-1, female)
Conditions: 1.0 mg/ear topical, 1 hour before arachidonic acid (0.5 mg)
Description: The direct application of arachidonic acid to skin, such as the mouse ear, produces an edematous response which is believed to be mediated by eicosanoids resulting from the actions of both cyclooxygenase and lipoxygenase systems. J. M. Young, D. A. Spires, C. J. Bedford, B. Wagner, S. J. Ballaron and L. M. DeYoung, J. Invest. Dermatol. 82:367-371 (1984); E. E. Opas, R. J. Bonney, and J. L. Hanes J. Invest. Dermatol. 84:253-256 (1985). PAF has been reported to cause the release of arachidonic acid, and as a result, gives rise to increased levels of eicosanoids in the exposed tissues. F. H. Chilton, J. T. Flaherty, C. E. Walsh, M. J. Thomas, R. L. Wykle, L. R. DeChatelet and B. M. Waite, J. Biol. Chem., 257:5402-5407 (1982). Thus, the mouse ear edema test can be used to discover substances which antagonize the effects of PAF.
The test drugs were dissolved in 10 μl ethanol and applied to the inner surface of the left ears of Charles River CD-1 female mice. Control values were obtained by applying 10 μl of ethanol to the right ear so that each mouse served as its own control. One hour later, arachidonic acid (0.5 mg/ear in 10 μl ethanol) was applied to both ears and allowed to act on the skin for one hour. […] The extent of edema in each sample was measured by weighing on an analytical balance.

Structure (SMILES): COc1ccc2cc([C@H](C)C(=O)O)ccc2c1 [Naproxen, naproxen, reference compound]
- % Inhibition of Edema: 5.8%
